{"sequences": {"note": "Sequences of proteins named here, by UniProt entry; tags and fusion partners are left off. Residues count along the entry.", "UniProt P19438, residues 30-455": "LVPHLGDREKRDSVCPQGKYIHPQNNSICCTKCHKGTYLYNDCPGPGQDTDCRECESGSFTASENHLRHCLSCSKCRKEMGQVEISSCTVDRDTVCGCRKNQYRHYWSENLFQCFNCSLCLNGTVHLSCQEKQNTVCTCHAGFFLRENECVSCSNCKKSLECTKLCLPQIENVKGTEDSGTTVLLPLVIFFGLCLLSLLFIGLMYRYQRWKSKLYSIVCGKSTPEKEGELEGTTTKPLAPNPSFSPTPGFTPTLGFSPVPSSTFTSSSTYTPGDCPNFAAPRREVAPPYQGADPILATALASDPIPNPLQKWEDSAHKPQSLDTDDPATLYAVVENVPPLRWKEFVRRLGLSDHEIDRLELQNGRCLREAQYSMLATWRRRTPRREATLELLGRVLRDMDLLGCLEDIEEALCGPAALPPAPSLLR"}, "source": "paper PMC8934857", "target": "T1, Flag-labelled ANXA1 (UniProt P04083)", "T1 sequence": "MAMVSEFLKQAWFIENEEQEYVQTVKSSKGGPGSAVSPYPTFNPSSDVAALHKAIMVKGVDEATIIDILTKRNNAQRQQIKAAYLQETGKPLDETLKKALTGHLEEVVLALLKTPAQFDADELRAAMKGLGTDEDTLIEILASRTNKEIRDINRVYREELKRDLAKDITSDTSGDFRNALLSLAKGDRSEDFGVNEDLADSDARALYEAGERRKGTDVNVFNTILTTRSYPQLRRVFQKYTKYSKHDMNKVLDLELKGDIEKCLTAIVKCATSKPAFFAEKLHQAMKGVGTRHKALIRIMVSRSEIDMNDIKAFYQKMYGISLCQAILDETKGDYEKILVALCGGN", "experiment": "co-IP; exogenous co-IP from lysate of HEK293T cells transfected with ANXA1-Flag and/or TNFR1-HA plasmids; precipitated with anti-Flag or anti-HA antibody, Protein A/G PLUS-Agarose; western blot", "note": "These are yes or no findings as the source states them, for the method shown. Binding seen in cells or lysates may run through a third protein. Some results given as binding are weak or reduced against the parent protein; the word gives no strength. Tags and fused reporters may be left off the sequences shown.", "data": [{"substance": "HA-labelled TNFR1 (from UniProt P19438 30-455) (receptor)", "values": [{"measurement": "binding", "value": "binds"}]}]}
